# PubChem BioAssay AID504834 (National Center for Advancing Translational Sciences (NCATS), 2011)
# The campaign covered roughly 320,000 compounds. About 22,000 (6.9%) were called active. This list was built around the results that the source calls inconclusive (neither active nor inactive); the mix of calls is not that of the screen. Calls follow the shape of the dose curve; as a rule, active = well fitted inhibition curve with a large enough effect; inconclusive = small, poorly fitted or top-dose-only effect, or another doubt; inactive = no such curve, though single readings can be large or run the other way. Potencies beside an inconclusive call are fits to weak or partial responses and may not hold up.
# Experiment: Primary qHTS for delayed death inhibitors of the malarial parasite plastid, 96 hour incubation
# Conditions: P. falciparum luciferase reporter growth; series mostly up to 28.7 µM; activity change, negative = inhibition: at the top concentration
# Procedure, shortened: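 Plates of compound plus infected erythrocytes (2% hematocrit, 0.05% parasitemia final) incubate 96 hours, 37 C, 5% CO2. Detection reagent added; reduced luminescence from the parasites' luciferase reporter flags inhibition.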
# % is scaled to controls: 0 for no effect and ±100 for the full control effect; potency is read from the fitted curve at half-maximal effect.
SMILES,Potency,"activity change, negative = inhibition"
O=C(Nc1c2c(nn1-c1cccc(Cl)c1)CS(=O)(=O)C2)c1cccs1,"inconclusive: 7.38 µM [inhibitor, partial curve, poor fit]",–
COc1cc(NC(=O)C23CC4CC(C2)CC(n2cnc([N+](=O)[O-])n2)(C4)C3)cc(OC)c1,"inconclusive: 18.5 µM [inhibitor, single point]",–
CCCCn1c(=O)c(C(=O)Nc2ccccc2N)c(O)c2ccccc21,"inconclusive: 18.5 µM [inhibitor, single point]",–
Cc1nn(CC(=O)N2CCN(C34CC5CC(CC(C5)C3)C4)CC2)c(C)c1[N+](=O)[O-],"inconclusive: 6.57 µM [inhibitor, partial curve, poor fit]",–
COc1ccc(C2C(CC(=O)O)=C(Nc3ccccc3)C(=O)N2c2ccccc2)cc1 (stereo not drawn),–,inactive: 9.71%
Cc1cc(Nc2ccc(O)cc2)ccc1N,"inconclusive: 11.7 µM [inhibitor, partial curve, poor fit]",–
O=C(COc1ccc(-n2cnnn2)cc1)Nc1ccccc1OC(F)F,"inconclusive: 18.5 µM [inhibitor, partial curve, poor fit]",–
O=C(CCNS(=O)(=O)c1ccccc1F)N1CCN(C(c2ccccc2)c2ccccc2)CC1,"inconclusive: 14.7 µM [inhibitor, partial curve, poor fit]",–
Cc1ccccc1C(=O)Nc1ccnn1C1CCN(CCCc2ccccc2)CC1,active: 14.7 µM,–
CCCOc1ccc(C(=O)N(CC(C)C)c2c(N)n(Cc3ccccc3)c(=O)[nH]c2=O)cc1,"inconclusive: 11.7 µM [inhibitor, single point]",–
CCOC(=O)Cc1csc(NC(=O)c2ccc(Br)o2)n1,"inconclusive: 11.7 µM [inhibitor, single point]",–
O=C(Nc1ccccc1SCC1CSc2nc3ccccc3c(=O)n21)c1ccccc1Cl (stereo not drawn),"inconclusive: 10.4 µM [inhibitor, single point]",–
CCCNC(=O)CN1C(=O)NC(c2ccccc2)(c2ccccc2)C1=O,–,inactive: 12.8%
CCOC(=O)c1cc2c(C)n(-c3ccc(N(C)C)cc3)c(C)c2cc(C(=O)OCC)c1=O,active: 3.29 µM,–
Cc1cccn2cc(-c3cccc(S(=O)(=O)N4CC(C)OC(C)C4)c3)nc12 (stereo not drawn),"inconclusive: 11.7 µM [inhibitor, single point]",–
O=C1N(c2ccccc2)C(c2ccccc2)N2CCCN12 (stereo not drawn),"inconclusive: 0.0828 µM [inhibitor, partial curve, poor fit]",–
CCOC(=O)c1cnc2c(OC)cccc2c1N1CC(C)CC(C)C1 (stereo not drawn),"inconclusive: 9.28 µM [inhibitor, partial curve, poor fit]",–
COc1ccc(Cc2nc3ccc(C(=O)N(C)Cc4nccs4)cc3o2)cc1OC,"inconclusive: 18.5 µM [inhibitor, single point]",–
CCCCNCCOCCOc1ccc(C)cc1[N+](=O)[O-],"inconclusive: 0.0329 µM [inhibitor, full curve, poor fit]",–
COc1cc(C(=O)N2CCN(C3CCC(C)CC3)CC2)cc(OC)c1OC (stereo not drawn),"inconclusive: 8.28 µM [inhibitor, single point]",–
O=C(NCC1CCCO1)C(c1cccs1)N(C(=O)c1ccc(-c2ccccc2)[nH]1)C1CCCC1 (stereo not drawn),"inconclusive: 14.7 µM [inhibitor, partial curve, poor fit]",–

# One compound at a time, as listed above.
# `CCOC(=O)c1cc2c(C)n(-c3ccc(N(C)C)cc3)c(C)c2cc(C(=O)OCC)c1=O` is entered as Potency: active: 3.29 µM
# `O=C(Nc1ccccc1SCC1CSc2nc3ccccc3c(=O)n21)c1ccccc1Cl` (stereo not drawn) is entered as Potency: inconclusive: 10.4 µM [inhibitor, single point]

# Additional structures

SMILES,Potency,"activity change, negative = inhibition"
CCOc1ccccc1N1CCN(C(=O)COc2ccc3c(C)cc(=O)oc3c2)CC1,"inconclusive: 11.7 µM [inhibitor, partial curve]",–
Cc1cccc(N2CCN(C(=S)Nc3ccc4nc(N5CCN(C)CC5)cc(C)c4c3)CC2)c1C,"inconclusive: 0.465 µM [inhibitor, partial curve, poor fit]",–
CCN(CC)c1cc(Cl)c2nonc2c1N,–,inactive: 18.7%
COc1ccc(-c2nn(-c3ccccc3)cc2C(=O)OCC(=O)c2ccc(C)c([N+](=O)[O-])c2)cc1,"inconclusive: 2.33 µM [inhibitor, partial curve, poor fit]",–
Cc1ccc(S(=O)(=O)N(Cc2n[nH]c(=S)n2-c2ccccc2)c2ccccc2)cc1,"inconclusive: 4.65 µM [inhibitor, partial curve]",–
Cc1cc(C)c(S(=O)(=O)N(C2=NCCS2)S(=O)(=O)c2c(C)cc(C)cc2C)c(C)c1,"inconclusive: 5.22 µM [inhibitor, partial curve]",–
FC(F)(F)Oc1ccc(C2NCc3ccccc3-n3cccc32)cc1 (stereo not drawn),"inconclusive: 18.5 µM [inhibitor, single point]",–
CC[n+]1c(C)sc2cc(OC)ccc21,"inconclusive: 10.4 µM [inhibitor, single point]",–
CC1CCN(S(=O)(=O)c2nnc(NC(=O)COc3ccccc3)s2)CC1,"inconclusive: 18.5 µM [inhibitor, single point]",–
CCC(C(=O)O)n1cnc2scc(-c3ccc(C)c(C)c3)c2c1=O (stereo not drawn),"inconclusive: 18.5 µM [inhibitor, single point]",–
O=C(Cn1cnc2c(nnn2Cc2ccc(Cl)cc2)c1=O)c1ccccc1,"inconclusive: 0.0738 µM [inhibitor, full curve, poor fit]",–
COc1ccccc1-c1nnc(SCC(=O)Nc2nc(-c3ccccc3)cs2)n1C,"inconclusive: 10.4 µM [inhibitor, partial curve, poor fit]",–
CC(=O)Nc1cccc(C(=O)OCc2csc(CC(=O)Nc3ccccc3C)n2)c1,"inconclusive: 18.5 µM [inhibitor, single point]",–
CC1CCN(CCCNC(=O)CN2C(=O)CSc3ccc(S(=O)(=O)N4CCOCC4)cc32)CC1,"inconclusive: 18.5 µM [inhibitor, single point]",–
Cc1ccc2c(c1)N(C(=O)CCC(=O)N1CCN(c3ccccn3)CC1)CCO2,–,inactive: 32.4%
COCc1cc(C)nc2sc(C(=O)NC3CCCCC3)c(N)c12,"inconclusive: 18.5 µM [inhibitor, single point]",–
CCOC(=O)CN(C)Cc1cn[nH]c1-c1ccc2cc(OC)ccc2c1,"inconclusive: 13.1 µM [inhibitor, partial curve, poor fit]",–
O=C(COC(=O)CC(c1ccccc1)c1ccccc1)Nc1ccc(F)c(F)c1,–,inactive: 0.852%
CC(=O)N1CC(C)Sc2ccc(S(=O)(=O)NCc3ccc(Cl)cc3)cc21 (stereo not drawn),"inconclusive: 4.15 µM [inhibitor, single point]",–
Cc1cc(=O)c2cc(NC(=O)c3ccccc3Cl)ccc2[nH]1,"inconclusive: 18.5 µM [inhibitor, single point]",–
COc1ccc(N2CCN(C(=O)CN3C(=O)NC4(CCCc5ccccc54)C3=O)CC2)cc1 (stereo not drawn),–,inactive: -13.3%

# 3 of the compounds above, bar-delimited:
SMILES | Potency | activity change, negative = inhibition
O=C(Nc1ccccc1SCC1CSc2nc3ccccc3c(=O)n21)c1ccccc1Cl (stereo not drawn) | inconclusive: 10.4 µM [inhibitor, single point] | –
CCCNC(=O)CN1C(=O)NC(c2ccccc2)(c2ccccc2)C1=O | – | inactive: 12.8%
CCOC(=O)c1cc2c(C)n(-c3ccc(N(C)C)cc3)c(C)c2cc(C(=O)OCC)c1=O | active: 3.29 µM | –

# More entries:

SMILES,Potency,"activity change, negative = inhibition"
O=C(CCc1ccccc1)NNC(=O)Nc1ccc(F)c(Cl)c1,"inconclusive: 18.5 µM [inhibitor, single point]",–
COc1ccc(Oc2ccc(C(F)(F)F)cc2NC(=O)c2ccc(F)cc2)cc1,"inconclusive: 18.5 µM [inhibitor, single point]",–
COc1ccccc1NC(=O)[C@H](COCc1ccccc1)NC(=O)OC(C)(C)C,"inconclusive: 3.7 µM [inhibitor, partial curve, poor fit]",–
CCOC(=O)c1ccc(-c2ccc(C3Nc4ccccc4C(=O)N3O)o2)cc1 (stereo not drawn),–,inactive: -89.4%
CCn1c(O)c2ccc(C(=O)N=NC(=O)c3cccnc3)cc2c1O,"inconclusive: 0.0026 µM [inhibitor, full curve, poor fit]",–
O=C(Nc1nccs1)c1ccc(-c2ccccc2Cl)o1,–,inactive: 15.6%
CSc1nc(NNC=O)cc(Oc2ccc(NC(C)=O)cc2)n1,–,inactive: 1.88%
CC(=O)c1cccc(NC(=O)CCN2C(=O)C3C4CCC(C4)C3C2=O)c1 (stereo not drawn),"inconclusive: 11.7 µM [inhibitor, partial curve, poor fit]",–
CCS(=O)(=O)Nc1c(C(=O)O)[nH]c2ccccc12,active: 11.7 µM,–
Cc1cccc(OCC(=O)O/N=C(\N)c2ccccn2)c1C,–,inactive: 60.5%
Cn1c(=O)[nH]c(=O)c2c1nc(OC(=O)c1ccccc1)n2CC(O)COc1ccccc1 (stereo not drawn),"inconclusive: 18.5 µM [inhibitor, single point]",–
N#CCN1CCN(CC(=O)Nc2ccc(OCc3ccccc3)cc2)CC1,"inconclusive: 11.7 µM [inhibitor, single point]",–
Cc1ccc(C2(C)NC(=O)N(CC(=O)Nc3cc(S(=O)(=O)N4CCOCC4)ccc3C)C2=O)cc1 (stereo not drawn),"inconclusive: 10.4 µM [inhibitor, single point]",–
CCNC(=S)N1CCC(C(O)(c2ccccc2)c2ccccc2)CC1,"inconclusive: 2.62 µM [inhibitor, partial curve]",–
Cc1ccc(C(=O)OCC(=O)NC2CCCCC2)cc1S(=O)(=O)N1CCCCC1,"inconclusive: 4.15 µM [inhibitor, single point]",–
Cc1[nH]c2ccccc2c1C(=O)C(=O)N1CCN(c2ccccc2Cl)CC1,"inconclusive: 9.28 µM [inhibitor, single point]",–
O=C(Nc1ccc2c(c1)OCO2)c1cncc(Br)c1,"inconclusive: 13.1 µM [inhibitor, single point]",–
COc1ccc(-c2nn(-c3ccccc3C)cc2CNC(C)Cn2cncn2)cc1F (stereo not drawn),"inconclusive: 18.5 µM [inhibitor, single point]",–
CC(C)C(=O)c1cc2c(cc1NC(=O)c1cccs1)OCCO2,"inconclusive: 18.5 µM [inhibitor, single point]",–
COc1ccccc1CN(C)C(=O)CN1CCN(C(=O)c2cccs2)CC1,–,inactive: -27.3%
COc1ccc(NS(=O)(=O)c2ccc(C)c(NC(=O)NC3CCCCC3)c2)cc1,"inconclusive: 11.7 µM [inhibitor, single point]",–
